Results from patent US20200299370A1 (UNIVERSITY OF FLORIDA RESEARCH FOUNDATION, published 2020).
Substitutions are numbered along the chain they refer to. These are yes or no findings as the source states them, for the method shown. Some binding calls cover weakened binding; strength is not graded here.

The chains behind the UniProt entries cited, without tags or fusion partners. Where a name states a change or a piece, a line headed by the entry shows the natural chain unless it says otherwise. A line that says so, or that is headed by a name, gives the form on record, which may keep a tag or linker.
endogenous mouse tau (P10637, form named): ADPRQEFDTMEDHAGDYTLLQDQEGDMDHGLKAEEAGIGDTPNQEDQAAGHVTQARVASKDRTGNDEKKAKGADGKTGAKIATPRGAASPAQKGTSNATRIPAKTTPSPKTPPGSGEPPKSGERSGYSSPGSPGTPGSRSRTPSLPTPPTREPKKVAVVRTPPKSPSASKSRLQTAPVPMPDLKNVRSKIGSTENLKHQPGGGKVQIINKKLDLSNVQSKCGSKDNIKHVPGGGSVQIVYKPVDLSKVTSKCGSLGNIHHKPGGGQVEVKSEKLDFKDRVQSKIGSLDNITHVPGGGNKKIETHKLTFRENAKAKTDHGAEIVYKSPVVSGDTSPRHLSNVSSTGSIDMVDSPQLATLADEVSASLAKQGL
sarkosyl-insoluble tau from the temporal cortex of human AD cases (P10636, form named): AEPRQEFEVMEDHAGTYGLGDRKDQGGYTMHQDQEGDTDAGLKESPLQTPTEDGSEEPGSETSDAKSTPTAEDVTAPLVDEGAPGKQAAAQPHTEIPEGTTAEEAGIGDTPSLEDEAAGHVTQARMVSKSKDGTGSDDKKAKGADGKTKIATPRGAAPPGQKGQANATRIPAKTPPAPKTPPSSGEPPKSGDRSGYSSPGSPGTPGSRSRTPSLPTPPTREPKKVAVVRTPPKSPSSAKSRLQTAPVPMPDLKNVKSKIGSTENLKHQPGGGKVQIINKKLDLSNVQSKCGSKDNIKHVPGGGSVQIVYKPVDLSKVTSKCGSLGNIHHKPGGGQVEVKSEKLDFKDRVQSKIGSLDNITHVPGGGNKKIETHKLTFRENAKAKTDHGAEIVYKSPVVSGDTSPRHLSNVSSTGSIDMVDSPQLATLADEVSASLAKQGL

B1: PHF2 (antibody, V domains shown)
VH: EVQLVESGGGSVKPGGSLKLSCAASGFTFSSYAMSWVRQTPEKRLEWVASITRGGSYTYFPDSVKGRFTISRDNTKDTLYLQMSSLRSEDTAMYYCTRQGNYDGAWCDYWGQGTLVTVSA
VL: DILLTQSPAILSVSPGERVSFSCRASQNIGTSIHWYQQRTNGSPRLLIKYTSESISGIPSRFGGSGSGTDFTLSVNGVESEDVADYYCQQTKTWPTTFGAGTKLELKR
B2: PHF15 (antibody, V domains shown)
VH: B1 VH with M34L, R53S, T75A, D77N, Q99P, D108A, A120S
VL: DILLTQSPAILSVSPGERDSFSCRASQNIGTSIHWYQQRTNGSPRLLIKYASESISGIPSRFSGSGSGTDFTLSVNSVESEDVADYYCQQTKTWPTTFGAGTKLDLK
B3: 6G12 (antibody, V domains shown)
VH: EVNLEESGGGLVQPGGSMKLSCVASGFTFSDYWMNWVRQSPEKGLEWVAEIRLKSDNFATHYAESVKGRFTISRDDSKSSVYLQTNNLRAEDTGIYYCTLMRGDYGAEFAYWGQGTLAIVSA
VL: DIVMSQSPSSLAVSVGEKVTLTCKSSRSLLYRGNQENFLAWYQQKPGQSPKLLIYWASTRESGVPDRFTGSGSGTDFTLTINSVKAEDLAVYYCQQYYTYPYTFGGGTKLEIKR
B4: 10G12 (antibody, V domains shown)
VH: EVKLEESGGGLVQPGGSMKLSCVASGFTFSNYWMNWVRQSPETGLEWVAEIRLKSYNYATHYAESVTGRFTISRDDSKNRVYLQMNNLGPDDTGIYYCTTGGAYHPFDYWGQGTTLTVSS
VL: B3 VL with L21M, R27Q, G33N, E36K, F38Y, N82S
notes: also called 10G2
B5: 7F2 (antibody, V domains shown)
VH: B4 VH with E1Q, K3Q, E5Q, E6Q, G9A, G10E
VL: EIVLTQSIPSLTVSAGERVTINCKSNQNLLWSGNQRYCLVWHQWKPGQTPTPLITWTSDRYSGVPDRFIGGGSVTDFTLTISSVQAEDVALYFCQHHLHIPPWTFGGGTKLEIKR
notes: also called clone 7F2
B6: 2D1 (antibody, V domains shown)
VH: EVKLVESGGGLVQPGGSLRLSCATSGFTFTDFSMNWVRQPPGKALEWLGCVRDRAEGYTTEYSASVQGRFTISRDNSQSILYLQMNTLRPEDSATYYCARERAFAYWGQGTLVTVSA
VL: DIVMSQSPSSLAVSAGEKVTMSCKSSQSLLYSRNQKNYLAWYQQRPGQSPKLLIYWASSRESGVSDRFTGSGSGTDFTLTISSVKADDLAVYYCQQYYKSPLTFGAGTKLELKR
notes: also called clone 2D1

Each binder was assayed against endogenous mouse tau (mouse) (UniProt P10637) (assay: immunoblot, total mouse brain lysates).

binding, binds:
B1
B2
B3
B4
B5
B6

Each binder was assayed against tau in NFTs / tau pathology of human AD brain tissue (human) (UniProt P10636) (assay: immunohistochemistry, human AD brain tissue).

binding, binds:
B3
B4
B5
B6

Each binder was assayed against sarkosyl-insoluble tau from the temporal cortex of human AD cases (human) (UniProt P10636) (assay: immunoblot, sarkosyl-insoluble fraction of human temporal cortex).

binding, binds:
B3
B4
B5
B6

These binders were tested against sarkosyl-insoluble tau from the temporal cortex of human AD cases (human) (UniProt P10636) (assay: immunoblot, sarkosyl-insoluble fraction of human temporal cortex; the lower-detection group).

binding, binds:
B6
